The results in this text go back to the supplement of paper PMC8866396.

This assay deals with IL-6-GFP PC-9. The assay can be described thus: IL-6-GFP fluorescence relative to DMSO control (fraction of control); higher = more IL-6-GFP expression. The conditions noted are these: compound concentration: 10 uM; treatment time: 48 h. As for the experimental part:
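IL-6-GFP-overexpressing PC-9 and PC-9GR EGFR-mutant lung cancer cells (3000 cells/well, 96-well) were treated for 48 h with each compound of the Selleck L2000 library at 10 uM. IL-6-GFP fluorescence was read on a high-content screening system, and viability by CCK-8 absorbance on a parallel plate set. Each value was normalised as compound well / DMSO control well; two independent replicates.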

± gives the standard deviation of the averaged measurements. The list shows a part of the results. Repeats in this data set agree poorly, so a single value says little.

The molecule `COc1cc2nccc(Oc3ccc(NC(=O)Nc4cc(C)on4)c(Cl)c3)c2cc1OC` [Tivozanib (AV-951)] had an IL-6-GFP fluorescence of 0.9917 ± 0.0075.

`CCCCC1C(=O)N(c2ccccc2)N(c2ccccc2)C1=O` [Phenylbutazone] returned an IL-6-GFP fluorescence of 0.882 ± 0.058.

`O=C(O)Cc1ccccc1Nc1c(Cl)cccc1Cl.OCCN1CCCC1` [Diclofenac Epolamine] gave an IL-6-GFP fluorescence of 0.833 ± 0.024.

As for `Cc1cc2c(C(N)=O)cccc2n1-c1nc2c(c(NCc3ccccc3)n1)COCC2`, the IL-6-GFP fluorescence stood at 1.11 ± 0.29.

As to `Cl.c1ccc(CN(CC2=NCCN2)c2ccccc2)cc1` [Antazoline HCl], the IL-6-GFP fluorescence is 0.879 ± 0.1.

For `Cl.Cl.O=C(O)COCCN1CCN(C(c2ccccc2)c2ccc(Cl)cc2)CC1` (stereo unspecified) [Cetirizine DiHCl], the IL-6-GFP fluorescence came out at 0.711 ± 0.38.

Regarding `CNCc1ccc(-c2[nH]c3cc(F)cc4c3c2CCNC4=O)cc1.O=P(O)(O)O`, the IL-6-GFP fluorescence was 2.53 ± 0.15.

As to `CC(C)c1nc(N(C)S(C)(=O)=O)nc(-c2ccc(F)cc2)c1/C=C/C(O)CC(O)CC(=O)O` (stereo unspecified) [Rosuvastatin], the IL-6-GFP fluorescence turned out to be 0.8625 ± 0.005.

`CCN(CC)CCNC(=O)c1c(C)[nH]c(/C=C2\C(=O)Nc3ccc(F)cc32)c1C.O=C(O)CC(O)C(=O)O` [Sunitinib Malate] came in with an IL-6-GFP fluorescence of 1.26 ± 0.19.

The molecule `CCN1CCN(Cc2ccc(Nc3ncc(F)c(-c4cc(F)c5nc(C)n(C(C)C)c5c4)n3)nc2)CC1.CS(=O)(=O)O` yielded an IL-6-GFP fluorescence of 1.1 ± 0.25.

As for `CC(C)(C)OC(=O)NC1CCCCC/C=C\C2CC2(C(=O)NS(=O)(=O)C2CC2)NC(=O)C2CC(OC(=O)N3Cc4cccc(F)c4C3)CN2C1=O` (stereo unspecified) [Danoprevir (ITMN-191)], the IL-6-GFP fluorescence amounted to 0.8397 ± 0.0041.
